Test results reported in patent publication US20230129723A1, “EN[…] OF 3,4-METHYLENEDIOXYMETHAMPHETAMINE AND RELATED METABOLITES AND USES THEREOF” (ATAI Life Sciences AG, priority 2021, published 2023).

Tests used:
[1] = tested on: rat embryonic cortical neuron cultures; experiment: Neurite outgrowth in primary rat embryonic cortical neuron cultures, racemic and non-racemic R(−)/S(+)-MDMA mixtures (Example 2); format: cell-based; settings: positive control 250 nM, compared to vehicle control
[2] = tested on: rat embryonic cortical neuron cultures; experiment: Neurite outgrowth in primary rat embryonic cortical neuron cultures, single test articles (Example 1); format: cell-based; settings: 250 nM, 3 days treatment, compared to 0.1% sterile water vehicle control, t test p<0.05
Excerpt: Primary rat cortical neuron experimental methods: Female Wistar rats of 17 days gestation were killed by cervical dislocation and the fetuses (typically 6 to 8 in number) were removed from the uterus. Fetal brains were placed in ice-cold medium of Leibovitz (L15, Gibco, France). Cortex was dissected and meninges were carefully removed. The cortical neurons were dissociated by trypsinization (trypsin-EDTA, Gibco) in the presence of DNAse I (Roche, France). The reaction was stopped by addition of Dulbecco's Modified Eagle Medium (DMEM; Gibco) with 10% of fetal bovine serum (FBS; Gibco). The suspension was triturated with a 10-ml pipette and a 21-gauge needle syringe and centrifuged. The pellet of dissociated cells was resuspended in a medium consisting of Neurobasal (Gibco) supplemented with 2% B27 supplement (Gibco), 0.5 mM L-Glutamine (Gibco), and an antibiotic-antimycotic mixture. Viable cells were counted in a Neubauer cytometer and cells were seeded in 96-well plates (Costar) precoated with poly-L-lysine at 10,000 cells/well.
Stock solutions were prepared in sterile water at 10 mM, and stored at −20° C. until use. Further dilution will be performed in culture in the medium on the day of the treatment. 0.1% Sterile water will be present in all tested conditions. […]
Cells were successively permeabilized for 30 minutes using 0.1% triton, saturated with PBS containing 3% bovine serum albumin (BSA) and incubated for 1 hour with anti-beta III tubulin antibody (T5168, Sigma). […] After rinsing the cells with PBS, the plate was imaged and neurite networks were examined and analyzed using a High-Content Screening platform (CellInsight CX5, Thermo Scientific) with integrated Photometrics high-resolution fluorescent camera, Olympus objective (10×) and HCS Studio Cell Analysis Software.
Approximately 2,000 neurons per well were analyzed using a validated cortex neuron outgrowth algorithm that utilizes parameters optimized for analysis of embryonic rat cortical neuron cultures. […]

[3] = all of the conditions tested, t test p<0.05

For `COc1cc2c(cc1OC)C(=O)C(CC1CCN(Cc3ccccc3)CC1)C2` (stereo not shown) [Donepezil, reference compound], the neurite number ([1]; 10 uM R(−), variable S(+) conditions, t test p<0.05) was “significantly increasing”, the “neurite total length (um)” value [1, 3] was “significantly increasing” and the “total number of branchpoints” value [1, 3] was “significantly increasing”. The “average number of neurites” value ([1]; one sample: 10 uM S(+), variable R(−) treatment conditions) was “did not reach statistical significance”, the neurite number [2] was “significantly increasing” and the “neurite total length (μm)” value [2] was “significantly increasing”. For the same compound, the “total number of branchpoints” value [2] was “significantly increasing”.
